# The whole screen tested about 190,000 compounds, of which about 590 (0.31%) were called active. Inconclusive means that the source gave no clear call. Such entries were picked first, then a sample of the others.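 How the source made its calls: active means nuclear translocation activity above 50% at 5 µM, with a well cell count of 50 or more; inconclusive means wells under 50 cells across six images, flagged as toxic; inactive means the rest.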
# Experiment: modulators of beta-catenin nuclear translocation, primary screen, imaging, HeLa cells, immunofluorescence, high-content (AID 1665);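 further: per-cell ratio of nuclear to cytoplasmic median beta-catenin stain intensity; plate controls were DMSO negative control for no effect and GSK-3 inhibitor IX positive control for full effect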
# Settings: at 5 µM, active compounds read high
# In short: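 test system = HeLa cells, endogenous beta-catenin | dosing = single 5 µM dose plus 0.02–20 µM confirmation series | times = compound treatment 24 h, 37°C, 5% CO2 | technique = beta-catenin immunofluorescence imaging with DAPI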
row,SMILES,nuclear translocation activity
1,NC(=O)c1cn(C2OC(CO)C(O)C2O)c2ncnc(N)c12 (configuration not stated),inconclusive: -3.3%
2,Cn1ncnc2c(=O)n(C)c(=O)nc1-2,inconclusive: 78.6%
3,Cc1ccc(C(=O)N[C@@H](C)CN2C3=NC[C@@H](Cc4ccccc4)N3C[C@H]2Cc2ccc(O)cc2)cc1Br,inactive: -2.4%
4,CN1C2CCC1/C(=C/c1ccccn1)C(=O)/C2=C\c1ccccn1,inconclusive: 133%
5,CC(=O)OC[C@]12CCC(C)=C[C@H]1O[C@@H]1[C@H](O)[C@@H](OC(C)=O)[C@@]2(C)[C@]12CO2,inconclusive: 16.3%
6,CCn1nc(-c2cccs2)nc2c(=O)n(C)c(=O)nc1-2,inconclusive: 49.8%
7,NC(=S)c1cn(C2OC(CO)C(O)C2O)c2ncnc(N)c12 (configuration not stated),inconclusive: 29.7%

# Reference: PubChem BioAssay AID1665 (Sanford-Burnham Center for Chemical Genomics, 2009)
